Experimental findings from article PMC8402715 (Viruses, 2021) are described below.

The assay concerns FLUAV-infected RPE cells. The assay is described as follows: Metabolomics of polar metabolites in media of FLUAV-infected RPE cells. The following applies: infected RPE cells (FLUAV moi 1), 10 μM, 24 h.

Take `CC(C)c1c(C(=O)Nc2ccccc2)c(-c2ccccc2)c(-c2ccc(F)cc2)n1CC[C@@H](O)C[C@@H](O)CC(=O)O` [Atorvastatin]: the “levels of many polar metabolites in the media” value is on record as “elevated”.
Take `O=C(O)COCCN1CCN(C(c2ccccc2)c2ccc(Cl)cc2)CC1` (centres unmarked) [cetirizine]: the “levels of many polar metabolites in the media” value is given as “elevated”.
